Assay results reported in PMC12079886.
These are yes or no findings as the source states them, for the method shown. Binding seen in cells or lysates may run through a third protein. Some binding calls cover weakened binding; strength is not graded here.

By UniProt entry, the sequences of proteins in these tests, tags left out. Where a name states a change or a piece, a line headed by the entry shows the natural chain unless it says otherwise.
UniProt Q99104: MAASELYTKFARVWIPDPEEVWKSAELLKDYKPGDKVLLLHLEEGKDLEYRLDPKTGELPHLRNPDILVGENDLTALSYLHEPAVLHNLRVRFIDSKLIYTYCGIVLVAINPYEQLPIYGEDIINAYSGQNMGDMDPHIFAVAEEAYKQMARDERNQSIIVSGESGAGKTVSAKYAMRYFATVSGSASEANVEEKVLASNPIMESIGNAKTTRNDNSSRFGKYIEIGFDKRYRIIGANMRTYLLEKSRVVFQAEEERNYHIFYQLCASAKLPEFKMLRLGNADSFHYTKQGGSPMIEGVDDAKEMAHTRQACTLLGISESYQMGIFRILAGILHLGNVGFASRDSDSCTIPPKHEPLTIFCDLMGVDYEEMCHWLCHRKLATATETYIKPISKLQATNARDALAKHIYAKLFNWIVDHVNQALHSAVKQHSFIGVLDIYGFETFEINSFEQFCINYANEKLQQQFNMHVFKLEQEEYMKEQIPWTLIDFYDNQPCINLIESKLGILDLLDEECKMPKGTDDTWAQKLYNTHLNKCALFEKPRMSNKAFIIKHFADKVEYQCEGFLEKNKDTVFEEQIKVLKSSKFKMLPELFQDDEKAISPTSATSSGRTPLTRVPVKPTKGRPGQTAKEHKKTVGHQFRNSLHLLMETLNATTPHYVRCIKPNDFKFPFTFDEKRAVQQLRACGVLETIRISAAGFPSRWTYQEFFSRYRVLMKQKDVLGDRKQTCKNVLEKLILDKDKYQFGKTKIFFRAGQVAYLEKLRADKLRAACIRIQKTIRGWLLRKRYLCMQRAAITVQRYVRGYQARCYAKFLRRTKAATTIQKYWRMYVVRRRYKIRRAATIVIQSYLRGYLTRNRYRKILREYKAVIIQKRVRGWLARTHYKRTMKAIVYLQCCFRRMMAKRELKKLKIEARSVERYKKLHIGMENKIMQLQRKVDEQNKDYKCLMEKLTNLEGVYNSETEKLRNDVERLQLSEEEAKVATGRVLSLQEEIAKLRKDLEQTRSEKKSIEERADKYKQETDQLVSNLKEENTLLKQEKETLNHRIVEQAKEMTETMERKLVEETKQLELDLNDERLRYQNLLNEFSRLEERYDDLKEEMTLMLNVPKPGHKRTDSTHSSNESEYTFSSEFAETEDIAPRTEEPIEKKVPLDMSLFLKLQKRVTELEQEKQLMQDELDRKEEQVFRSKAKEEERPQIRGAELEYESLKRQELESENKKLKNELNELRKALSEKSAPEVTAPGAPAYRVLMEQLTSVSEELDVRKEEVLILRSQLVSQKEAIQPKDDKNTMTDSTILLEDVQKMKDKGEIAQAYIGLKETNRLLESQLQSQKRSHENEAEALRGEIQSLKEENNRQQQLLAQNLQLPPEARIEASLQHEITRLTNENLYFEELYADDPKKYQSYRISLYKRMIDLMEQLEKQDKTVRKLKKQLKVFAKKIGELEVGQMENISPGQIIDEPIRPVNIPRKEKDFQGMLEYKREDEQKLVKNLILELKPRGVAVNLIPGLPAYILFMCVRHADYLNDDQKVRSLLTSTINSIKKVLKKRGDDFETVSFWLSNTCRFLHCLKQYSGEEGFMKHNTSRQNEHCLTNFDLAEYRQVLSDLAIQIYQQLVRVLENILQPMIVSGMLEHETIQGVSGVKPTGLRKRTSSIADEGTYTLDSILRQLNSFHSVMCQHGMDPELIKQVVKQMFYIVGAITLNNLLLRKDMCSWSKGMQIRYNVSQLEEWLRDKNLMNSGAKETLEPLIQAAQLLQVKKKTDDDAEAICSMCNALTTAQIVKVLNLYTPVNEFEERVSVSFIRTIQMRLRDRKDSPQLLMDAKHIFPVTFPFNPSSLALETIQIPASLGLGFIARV
UniProt Q9Z1S5: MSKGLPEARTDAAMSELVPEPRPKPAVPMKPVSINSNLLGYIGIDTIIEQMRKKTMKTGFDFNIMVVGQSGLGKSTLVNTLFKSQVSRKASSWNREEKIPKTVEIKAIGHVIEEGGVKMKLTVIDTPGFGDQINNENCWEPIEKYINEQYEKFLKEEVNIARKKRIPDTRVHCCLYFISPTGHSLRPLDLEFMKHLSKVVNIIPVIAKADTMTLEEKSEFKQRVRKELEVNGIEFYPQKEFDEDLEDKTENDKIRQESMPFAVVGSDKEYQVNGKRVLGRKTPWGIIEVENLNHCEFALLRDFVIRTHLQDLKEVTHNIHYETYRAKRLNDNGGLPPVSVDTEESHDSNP

Biological target: myosin-Va (MYO5A) (UniProt Q99104)
Assay: co-IP; cell lysate co-expressing MYO5A and SEPT3-WT or T211E; which protein was precipitated is not told in the main text

binding: binds
Substance: septin 3 phosphomimetic mutant T211E (SEPT3-T211E) (from UniProt Q9Z1S5 1-350)
